# The campaign covered roughly 350,000 compounds. About 6,000 (1.7%) were called active. The inconclusive results got no clear call from the source; some entries with a clear call stand among them for comparison. Cut-off read from the data, not from the text of the source: active = CPE inhibition above about 20% (passing the limit was not always enough); inconclusive = no clear call, values can overlap the other calls; tested in BHK-21 cells.
# Assay: protection of cells from dengue 2 killing – plate reader, single concentration, primary screen (AID 651640);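 note: 0% = median of neutral control wells and 100% = median of positive control wells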
# Details: DENV2-infected cells, cytopathic effect rescue, at 9.99 µM, active compounds read high
row,SMILES,CPE inhibition
1,CO[C@@H]1CN(C)C(=O)c2ccc(NC(=O)Nc3ccc(F)cc3)cc2OC[C@H](C)NC[C@@H]1C,active: 36.4%
2,Cc1ccc(C23CC4CC(CC(C(N)=O)(C4)C2)C3)cc1,inconclusive: 21.1%
3,Clc1cccc(Cl)c1C[n+]1ccc2ccccc2c1,inconclusive: 31%
4,COc1ccc(S(=O)(=O)Nc2cccc3c2O[C@@H](CN(C)S(=O)(=O)c2c(C)noc2C)[C@H](C)CN([C@@H](C)CO)C3=O)cc1,inconclusive: 29.2%
5,COc1ccc(S(=O)(=O)N(C)C[C@@H]2OCCCC[C@@H](C)Oc3ccc(NS(=O)(=O)c4ccc(F)cc4)cc3C(=O)N([C@H](C)CO)C[C@H]2C)cc1,inactive: 13%
6,COCCC(=O)N1CCCC(CCC(=O)NCc2ccc(F)c(F)c2)C1 (stereo not given),inconclusive: 24%
7,Cc1cccc(-c2cc(C(=O)Nc3ccncc3)c3ccccc3n2)c1,inconclusive: 62.1%
8,CCN(CC)c1ccc2nc3ccc(N)cc3[n+](-c3ccccc3)c2c1,inconclusive: 24%
9,CN(C)CC(=O)Nc1ccc2c(c1)[C@H]1C[C@H](CC(=O)NC3CCCCC3)O[C@@H](CO)[C@H]1O2,active: 86.5%
10,C[C@H](CO)N1C[C@H](C)[C@H](CN(C)Cc2ccc(C(F)(F)F)cc2)OCCCC[C@H](C)Oc2ccc(NS(=O)(=O)c3ccc(F)cc3)cc2C1=O,inactive: -5.89%
11,CC(=O)Nc1ccc(S(=O)(=O)N2CCN(Cc3ccccc3[N+](=O)[O-])CC2)cc1,inactive: -3.72%
12,COc1ccc2oc(C(=O)OCC(=O)Nc3ccc(NC(C)=O)cc3)c(C)c2c1,inactive: 18.6%
13,O=C(c1ccccn1)N1C[C@@H]2[C@H](c3ccccc31)[C@@H](CO)N2C(=O)Nc1ccccc1Cl,inconclusive: 46.3%
14,Cc1ccc(S(=O)(=O)N(C)C)cc1NC(=O)[C@H](Cc1ccccc1)N1C(=O)c2ccccc2C1=O,active: 41.7%
15,Clc1ccc(-c2ccccc2)cn1,inconclusive: 25%
16,COc1ccccc1-c1c(C)nn2c(N3CCN(Cc4ccccc4)CC3)cc(C)nc12,active: 54.8%
17,Cc1cccc(S(=O)(=O)N(C)C[C@@H]2OCc3ccccc3-c3ccccc3C(=O)N([C@@H](C)CO)C[C@@H]2C)c1,inconclusive: 23.9%
18,COc1cccc(-c2cnc(C(O)c3ccc(Cl)cc3)[nH]2)c1 (stereo not given),inconclusive: 46.8%
19,C[C@H]1CN([C@@H](C)CO)C(=O)c2cc(NC(=O)Nc3ccc(F)cc3)ccc2O[C@H]1CN(C)S(=O)(=O)c1cccs1,inactive: 9.26%
20,Nc1nonc1-n1nnc(C(=O)N/N=C/c2ccccc2)c1CN1CCc2ccccc21,inconclusive: 29.4%
21,CN1C[C@@H]2[C@H](c3ccccc31)[C@@H](CO)N2Cc1ccccc1,active: 44.2%
22,CC(NC(=O)c1ccccc1Cl)C(=O)OCc1cn2cc(Cl)ccc2n1 (stereo not given),inconclusive: 34.7%
23,C[C@H](CO)N1C[C@H](C)[C@@H](CN(C)Cc2ccc3c(c2)OCO3)OCCCC[C@H](C)Oc2ccc(NC(=O)CCCN(C)C)cc2C1=O,inactive: -7%

row,SMILES,CPE inhibition
1,O=C(Cc1c(F)cccc1Cl)OCC(=O)N1CCN(c2ccccc2)CC1,inactive: 3.03%
2,C[C@H](CO)N1C[C@H](C)[C@@H](CN(C)C(=O)Nc2ccc3c(c2)OCO3)Oc2ccc(NC(=O)Nc3ccccc3)cc2CC1=O,inactive: 2.36%
3,COc1cc2c(=O)c(-c3ccc(O)cc3)coc2cc1OC1OC(CO)C(O)C(O)C1O (stereo not given),inconclusive: 74.6%
4,Cc1ccc(S(=O)(=O)N2C[C@H]3[C@H]4C(=O)N(Cc5ccccc5)C(=O)[C@H]4CC(=O)[C@H]3[C@@H]2c2ccccc2)cc1,inconclusive: 25.3%
5,CC(=O)N(C)C[C@H]1Oc2ncc(-c3ccc(C)cc3)cc2C(=O)N([C@@H](C)CO)C[C@@H]1C,inconclusive: 25.2%
6,Cc1ccc([C@H]2C[C@@H](n3cc(C4CC4)nn3)[C@H](O)CN2C(=O)C2CCCCC2)cc1,inconclusive: 27.5%
7,O=c1oc(-c2ccccc2)nc2sc3c(c12)CCC3,inactive: 1.9%
8,C[C@H]1CN([C@@H](C)CO)C(=O)c2cc(C#CCN(C)C)cnc2O[C@H]1CN(C)C(=O)c1cccnc1,inconclusive: 25.1%
9,CCC(=O)N1CC[C@H]2[C@H](CO)Nc3ccc(-c4ccc(F)cc4)cc3[C@H]21,inconclusive: 26.9%
10,CCOc1ccc(S(=O)(=O)n2nc(C)c(S(=O)(=O)N3CCOCC3)c2C)cc1,inactive: 1.95%
11,CCOC(=O)c1c(C)[nH]c(C)c1S(=O)(=O)N1CCN(c2ccc([N+](=O)[O-])cc2)CC1,inconclusive: 24.5%
12,c1cncc(CN2CCN(c3cc(-c4cnc5ccccc5c4)nc4ccnn34)CC2)c1,inconclusive: 48.7%
13,C[C@H]1CCCCO[C@H](CN(C)C(=O)CCC(F)(F)F)[C@@H](C)CN([C@@H](C)CO)C(=O)c2cc(NC(=O)CCC(F)(F)F)ccc2O1,inconclusive: 30.9%
14,CC(C)c1[nH]nc2c1C(c1ccc(F)cc1)N(Cc1ccccc1)C2=O (stereo not given),inactive: 1.62%
15,OC[C@H]1[C@H](c2ccc(-c3ccc(F)cc3)cc2)[C@@H]2CN(Cc3ccncc3)CCCCN12,active: 44%
16,COc1ccccc1-c1ccc(SCC(=O)N2CCOCC2)nn1,inconclusive: 27%
17,CCNC(=O)C[C@H]1CC[C@H](NS(=O)(=O)c2ccc(F)cc2)[C@H](CO)O1,inactive: -7.08%
18,CCOC(=O)C1=C(COc2ccccc2)NC(=O)NC1c1ccc(Br)cc1 (stereo not given),inconclusive: 21.3%
19,CN(Cc1ccccc1)C(=O)c1ccc(NC(=O)Cc2cccc(NC(=O)C3CCCN(C(=O)C4CCCC4)C3)c2)cc1 (stereo not given),inconclusive: 30.6%
20,Cc1nc2c(sc(=S)n2Cc2ccco2)c(=O)n1CC(=O)Nc1ccccc1Cl,inactive: -9.17%
21,O=C(CN1CCOCC1)N1CCCCN2[C@H](CO)[C@@H](c3ccc(Br)cc3)[C@@H]2C1,inconclusive: 20.7%
22,C[C@@H]1CCCCO[C@@H](CN(C)C(=O)c2ccccc2)[C@H](C)CN([C@@H](C)CO)C(=O)c2cc(NS(=O)(=O)c3cccs3)ccc2O1,inactive: 6.19%

# Some values from above.
# Value for `CC(=O)N(C)C[C@H]1Oc2ncc(-c3ccc(C)cc3)cc2C(=O)N([C@@H](C)CO)C[C@@H]1C` under CPE inhibition: inconclusive: 25.2%
# Value for `C[C@H]1CN([C@@H](C)CO)C(=O)c2cc(C#CCN(C)C)cnc2O[C@H]1CN(C)C(=O)c1cccnc1` under CPE inhibition: inconclusive: 25.1%
# Value for `OC[C@H]1[C@H](c2ccc(-c3ccc(F)cc3)cc2)[C@@H]2CN(Cc3ccncc3)CCCCN12` under CPE inhibition: active: 44%
